The target in the experiment is T1, T25-tagged DrRecA (plasmid pKNT25recA) in E. coli BTH101 (D. radiodurans) (UniProt P42443).
T1 sequence: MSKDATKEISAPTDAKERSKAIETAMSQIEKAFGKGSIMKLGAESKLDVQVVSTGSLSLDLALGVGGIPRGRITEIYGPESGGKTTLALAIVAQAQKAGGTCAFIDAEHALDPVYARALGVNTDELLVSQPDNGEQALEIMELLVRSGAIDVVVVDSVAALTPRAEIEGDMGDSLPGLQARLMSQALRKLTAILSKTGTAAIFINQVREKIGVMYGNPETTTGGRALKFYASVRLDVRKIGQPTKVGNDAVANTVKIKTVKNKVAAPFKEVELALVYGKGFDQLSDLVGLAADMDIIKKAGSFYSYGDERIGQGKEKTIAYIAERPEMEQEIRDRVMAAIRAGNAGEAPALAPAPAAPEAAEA
Briefly: two-hybrid; bacterial two-hybrid (BACTH) in E. coli BTH101; T18 and T25 fusions coexpressed; blue colonies on X-Gal/IPTG plates at 30 C for 12 h and beta-galactosidase activity in solution.

Results are given in words; binding and its absence hold for the method and conditions named. Binding can be weak; no strength is given. Sequences can lack the tags named with a protein.

“T18-tagged DrDprA (plasmid pUTdprA) in E. coli BTH101 (D. radiodurans)”: the binding entry is “binds”.

The values above are taken from paper PMC9769556.
